Experimental data published in the supplement of paper PMC12067093, “Discovery and optimisation of a covalent ligand for TRIM25 and its application to targeted protein ubiquitination” (Chemical Science, 2025).
The list shows a part of the results.

Chains of the proteins cited; added tags and fusions are not shown. Lines headed by an entry give the natural chain unless they say otherwise; changes in a name come on top.
UniProt Q9NQT5, whole entry, looked up: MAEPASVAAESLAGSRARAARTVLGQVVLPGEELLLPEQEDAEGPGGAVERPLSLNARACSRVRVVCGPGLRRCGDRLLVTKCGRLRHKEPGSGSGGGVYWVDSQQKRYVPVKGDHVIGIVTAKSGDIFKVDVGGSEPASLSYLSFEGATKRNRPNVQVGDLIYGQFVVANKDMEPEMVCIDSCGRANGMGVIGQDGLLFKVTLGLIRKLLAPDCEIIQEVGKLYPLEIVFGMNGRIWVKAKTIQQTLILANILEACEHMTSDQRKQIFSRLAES
UniProt Q9NZB2: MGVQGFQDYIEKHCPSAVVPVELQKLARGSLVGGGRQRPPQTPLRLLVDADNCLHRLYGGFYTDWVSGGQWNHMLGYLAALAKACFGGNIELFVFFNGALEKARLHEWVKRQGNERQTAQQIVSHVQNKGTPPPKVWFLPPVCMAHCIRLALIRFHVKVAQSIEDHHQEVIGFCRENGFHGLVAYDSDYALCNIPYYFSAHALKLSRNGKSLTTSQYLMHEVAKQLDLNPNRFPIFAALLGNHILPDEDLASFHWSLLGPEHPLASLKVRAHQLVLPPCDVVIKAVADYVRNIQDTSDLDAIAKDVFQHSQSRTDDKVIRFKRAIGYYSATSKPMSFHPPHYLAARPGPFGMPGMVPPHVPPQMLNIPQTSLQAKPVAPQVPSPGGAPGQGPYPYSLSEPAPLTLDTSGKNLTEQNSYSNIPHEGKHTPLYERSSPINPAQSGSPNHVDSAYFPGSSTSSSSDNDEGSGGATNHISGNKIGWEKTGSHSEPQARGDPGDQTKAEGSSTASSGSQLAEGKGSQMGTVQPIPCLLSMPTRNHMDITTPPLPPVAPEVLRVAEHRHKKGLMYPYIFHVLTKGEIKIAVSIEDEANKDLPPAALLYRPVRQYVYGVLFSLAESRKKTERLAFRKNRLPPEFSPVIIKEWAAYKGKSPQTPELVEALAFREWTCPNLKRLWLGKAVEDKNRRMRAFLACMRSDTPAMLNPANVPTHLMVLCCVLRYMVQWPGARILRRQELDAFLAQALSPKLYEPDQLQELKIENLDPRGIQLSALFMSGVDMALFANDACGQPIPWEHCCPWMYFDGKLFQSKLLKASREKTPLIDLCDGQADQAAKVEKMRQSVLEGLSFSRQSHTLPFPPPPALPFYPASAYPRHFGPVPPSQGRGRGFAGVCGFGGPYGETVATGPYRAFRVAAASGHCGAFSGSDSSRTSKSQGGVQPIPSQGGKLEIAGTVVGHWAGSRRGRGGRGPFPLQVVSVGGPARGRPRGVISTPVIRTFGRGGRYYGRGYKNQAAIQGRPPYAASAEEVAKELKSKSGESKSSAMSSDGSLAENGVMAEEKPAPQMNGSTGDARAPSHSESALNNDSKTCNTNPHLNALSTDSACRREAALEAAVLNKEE
UniProt Q969X5: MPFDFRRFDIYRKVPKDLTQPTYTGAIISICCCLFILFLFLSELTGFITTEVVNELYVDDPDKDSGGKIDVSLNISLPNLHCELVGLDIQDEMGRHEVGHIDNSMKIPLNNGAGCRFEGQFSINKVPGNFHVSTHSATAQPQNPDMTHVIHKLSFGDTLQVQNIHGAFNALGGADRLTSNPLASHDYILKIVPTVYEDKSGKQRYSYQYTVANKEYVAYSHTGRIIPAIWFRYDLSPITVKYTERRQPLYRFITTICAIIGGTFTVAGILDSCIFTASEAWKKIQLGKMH
UniProt Q06265, whole entry, looked up: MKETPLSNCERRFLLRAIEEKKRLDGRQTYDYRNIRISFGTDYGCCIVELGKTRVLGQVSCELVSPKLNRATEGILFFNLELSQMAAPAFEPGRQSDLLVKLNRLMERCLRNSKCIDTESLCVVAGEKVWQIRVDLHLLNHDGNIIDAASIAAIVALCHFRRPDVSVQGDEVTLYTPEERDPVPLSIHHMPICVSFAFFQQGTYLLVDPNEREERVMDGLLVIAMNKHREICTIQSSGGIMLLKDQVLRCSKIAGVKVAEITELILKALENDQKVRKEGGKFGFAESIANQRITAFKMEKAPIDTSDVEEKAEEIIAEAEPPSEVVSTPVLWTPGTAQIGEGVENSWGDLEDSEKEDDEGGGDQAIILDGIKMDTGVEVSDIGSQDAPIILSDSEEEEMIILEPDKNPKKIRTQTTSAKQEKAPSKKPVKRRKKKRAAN
UniProt Q8IV48: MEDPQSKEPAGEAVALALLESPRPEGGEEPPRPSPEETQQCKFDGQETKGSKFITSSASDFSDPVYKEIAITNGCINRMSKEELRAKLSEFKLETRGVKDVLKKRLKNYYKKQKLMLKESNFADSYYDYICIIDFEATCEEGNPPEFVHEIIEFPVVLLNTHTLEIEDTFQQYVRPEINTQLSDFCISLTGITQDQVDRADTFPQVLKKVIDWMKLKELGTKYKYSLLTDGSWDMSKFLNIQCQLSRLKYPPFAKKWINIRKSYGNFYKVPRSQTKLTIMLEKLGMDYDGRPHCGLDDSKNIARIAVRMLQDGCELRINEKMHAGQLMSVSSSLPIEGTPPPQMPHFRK
UniProt Q9BZQ8: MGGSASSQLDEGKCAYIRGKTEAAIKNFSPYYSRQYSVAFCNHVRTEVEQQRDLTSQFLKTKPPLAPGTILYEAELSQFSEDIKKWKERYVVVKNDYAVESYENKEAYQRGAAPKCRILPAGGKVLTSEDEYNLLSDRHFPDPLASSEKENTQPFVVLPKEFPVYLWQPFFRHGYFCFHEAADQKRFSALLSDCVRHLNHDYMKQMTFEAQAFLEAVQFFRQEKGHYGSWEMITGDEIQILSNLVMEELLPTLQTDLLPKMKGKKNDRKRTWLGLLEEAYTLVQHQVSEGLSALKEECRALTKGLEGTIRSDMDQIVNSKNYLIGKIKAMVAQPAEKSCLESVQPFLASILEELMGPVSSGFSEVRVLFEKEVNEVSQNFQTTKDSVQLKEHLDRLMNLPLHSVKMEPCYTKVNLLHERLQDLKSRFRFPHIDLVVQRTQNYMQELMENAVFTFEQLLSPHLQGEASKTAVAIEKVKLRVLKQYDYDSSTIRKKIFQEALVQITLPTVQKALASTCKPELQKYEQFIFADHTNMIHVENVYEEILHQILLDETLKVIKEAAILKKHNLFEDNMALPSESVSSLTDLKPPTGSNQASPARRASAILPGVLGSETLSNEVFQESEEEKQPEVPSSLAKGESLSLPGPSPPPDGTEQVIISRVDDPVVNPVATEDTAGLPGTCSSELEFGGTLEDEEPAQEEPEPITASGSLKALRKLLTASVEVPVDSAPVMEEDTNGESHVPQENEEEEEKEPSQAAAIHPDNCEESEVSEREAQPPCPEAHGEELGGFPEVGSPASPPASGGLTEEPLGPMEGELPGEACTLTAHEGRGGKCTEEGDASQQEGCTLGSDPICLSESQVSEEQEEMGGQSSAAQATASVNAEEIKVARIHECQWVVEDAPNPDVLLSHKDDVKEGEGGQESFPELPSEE
UniProt Q9NQT4, whole entry, looked up: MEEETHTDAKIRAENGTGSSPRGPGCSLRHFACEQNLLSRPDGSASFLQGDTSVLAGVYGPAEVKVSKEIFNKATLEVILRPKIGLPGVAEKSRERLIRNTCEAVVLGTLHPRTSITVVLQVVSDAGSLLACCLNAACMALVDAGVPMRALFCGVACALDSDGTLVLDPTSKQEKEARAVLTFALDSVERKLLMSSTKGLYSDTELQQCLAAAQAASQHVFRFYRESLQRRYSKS
UniProt P84090, whole entry, looked up: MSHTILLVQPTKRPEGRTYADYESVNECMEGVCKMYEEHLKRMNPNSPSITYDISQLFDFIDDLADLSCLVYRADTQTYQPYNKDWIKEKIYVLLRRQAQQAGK
UniProt Q96B26, whole entry, looked up: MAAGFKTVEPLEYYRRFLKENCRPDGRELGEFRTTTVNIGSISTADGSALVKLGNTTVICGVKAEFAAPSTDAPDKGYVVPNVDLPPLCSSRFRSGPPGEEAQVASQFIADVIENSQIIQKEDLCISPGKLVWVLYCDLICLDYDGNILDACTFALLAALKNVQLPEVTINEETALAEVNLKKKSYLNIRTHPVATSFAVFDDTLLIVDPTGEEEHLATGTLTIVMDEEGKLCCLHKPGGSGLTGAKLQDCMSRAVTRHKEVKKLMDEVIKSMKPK
UniProt P38117: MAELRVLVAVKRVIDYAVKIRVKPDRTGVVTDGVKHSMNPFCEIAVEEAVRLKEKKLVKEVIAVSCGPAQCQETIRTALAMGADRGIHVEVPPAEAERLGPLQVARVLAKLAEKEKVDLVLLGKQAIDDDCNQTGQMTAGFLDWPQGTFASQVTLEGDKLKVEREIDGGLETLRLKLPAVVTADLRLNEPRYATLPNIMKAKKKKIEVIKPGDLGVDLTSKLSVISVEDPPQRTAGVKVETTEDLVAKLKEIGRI
UniProt Q8TAG9: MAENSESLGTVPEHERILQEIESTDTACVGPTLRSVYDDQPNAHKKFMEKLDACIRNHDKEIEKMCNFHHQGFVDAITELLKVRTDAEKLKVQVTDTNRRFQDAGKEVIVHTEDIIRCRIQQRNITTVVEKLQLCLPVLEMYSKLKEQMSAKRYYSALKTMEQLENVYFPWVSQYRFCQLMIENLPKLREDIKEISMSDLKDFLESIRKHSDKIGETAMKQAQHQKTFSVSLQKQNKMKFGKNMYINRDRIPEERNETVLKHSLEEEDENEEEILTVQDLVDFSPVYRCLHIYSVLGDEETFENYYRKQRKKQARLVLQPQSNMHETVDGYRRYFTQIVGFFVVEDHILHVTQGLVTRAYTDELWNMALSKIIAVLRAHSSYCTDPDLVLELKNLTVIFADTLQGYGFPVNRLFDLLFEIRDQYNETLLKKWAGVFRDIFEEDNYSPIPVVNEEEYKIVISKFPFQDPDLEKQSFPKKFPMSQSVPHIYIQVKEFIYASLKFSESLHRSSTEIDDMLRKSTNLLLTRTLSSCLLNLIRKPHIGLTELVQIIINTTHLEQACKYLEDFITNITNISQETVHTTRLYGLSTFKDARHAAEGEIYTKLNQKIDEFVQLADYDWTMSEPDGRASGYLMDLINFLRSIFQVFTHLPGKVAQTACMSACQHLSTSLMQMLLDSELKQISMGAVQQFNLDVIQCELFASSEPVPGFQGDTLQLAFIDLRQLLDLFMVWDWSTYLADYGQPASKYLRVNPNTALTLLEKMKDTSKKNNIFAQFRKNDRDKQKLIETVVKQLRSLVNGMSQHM
UniProt Q9BYI3: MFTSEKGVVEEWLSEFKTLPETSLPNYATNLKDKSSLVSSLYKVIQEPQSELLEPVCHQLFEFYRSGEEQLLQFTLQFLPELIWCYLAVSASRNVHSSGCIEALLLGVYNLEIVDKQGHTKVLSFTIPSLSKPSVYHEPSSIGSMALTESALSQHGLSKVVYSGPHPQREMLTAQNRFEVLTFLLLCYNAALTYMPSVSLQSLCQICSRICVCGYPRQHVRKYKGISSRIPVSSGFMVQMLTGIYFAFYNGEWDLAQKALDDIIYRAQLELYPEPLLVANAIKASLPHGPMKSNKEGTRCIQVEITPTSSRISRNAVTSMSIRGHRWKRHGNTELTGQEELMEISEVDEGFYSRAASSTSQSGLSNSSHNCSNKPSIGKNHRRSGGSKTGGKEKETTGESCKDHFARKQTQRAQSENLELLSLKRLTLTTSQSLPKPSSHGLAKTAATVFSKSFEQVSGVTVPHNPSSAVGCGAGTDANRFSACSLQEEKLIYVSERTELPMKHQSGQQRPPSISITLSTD
UniProt Q9Y624, whole entry, looked up, stated change not applied: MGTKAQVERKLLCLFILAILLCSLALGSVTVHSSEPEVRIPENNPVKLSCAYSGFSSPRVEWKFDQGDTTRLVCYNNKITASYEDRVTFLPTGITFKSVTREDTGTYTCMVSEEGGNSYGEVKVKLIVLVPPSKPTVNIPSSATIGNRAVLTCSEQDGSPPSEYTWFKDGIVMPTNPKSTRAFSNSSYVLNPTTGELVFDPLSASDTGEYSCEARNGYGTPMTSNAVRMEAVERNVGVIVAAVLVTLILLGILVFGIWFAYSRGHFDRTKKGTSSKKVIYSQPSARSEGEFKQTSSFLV
UniProt Q9NVH0: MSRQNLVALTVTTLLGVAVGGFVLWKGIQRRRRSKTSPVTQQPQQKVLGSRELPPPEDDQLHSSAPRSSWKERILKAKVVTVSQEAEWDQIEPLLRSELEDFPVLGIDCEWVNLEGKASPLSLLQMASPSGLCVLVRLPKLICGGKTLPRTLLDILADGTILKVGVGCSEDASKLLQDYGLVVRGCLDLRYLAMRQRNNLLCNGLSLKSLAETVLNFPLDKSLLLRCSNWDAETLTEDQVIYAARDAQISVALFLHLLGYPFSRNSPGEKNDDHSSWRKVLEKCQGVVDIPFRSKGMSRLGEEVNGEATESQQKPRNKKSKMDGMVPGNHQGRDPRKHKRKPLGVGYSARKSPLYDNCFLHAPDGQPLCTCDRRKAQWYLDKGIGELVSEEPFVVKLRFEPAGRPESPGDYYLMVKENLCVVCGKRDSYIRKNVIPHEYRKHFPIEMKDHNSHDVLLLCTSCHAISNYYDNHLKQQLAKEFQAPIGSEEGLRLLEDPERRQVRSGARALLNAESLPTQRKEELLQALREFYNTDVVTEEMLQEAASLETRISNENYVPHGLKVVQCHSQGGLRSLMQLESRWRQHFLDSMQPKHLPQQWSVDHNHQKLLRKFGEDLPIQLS

Compound: Cc1cc(ccc1-c1ccccc1)C(=O)N1CCCN(CC1)C(=O)CCl [compound 10]
Experiment: probe-labelled cysteine peptide fold change vs DMSO (competition) (log2 fold change); higher = less target engagement (more negative = stronger competition)
Conditions: THP-1, incubation time: 4 h
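Further: competitive profiling in live THP-1 cells: cysteine peptides tagged with an iodoacetamide desthiobiotin (IA-DTB) probe, intensity after compound treatment relative to DMSO-treated cells.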

Target | probe-labelled cysteine peptide fold change (10 µM) | probe-labelled cysteine peptide fold change (50 µM)
EXOSC3_Q9NQT5_184_DMEPEMVCIDSCGR (UniProt Q9NQT5) | -0.0743 | -0.423
FAM120A_Q9NZB2_53_LLVDADNCLHR (UniProt Q9NZB2) | 0.128 | 0.139
ERGIC1_Q969X5_115_IPLNNGAGCR (UniProt Q969X5) | 0.187 | 0.156
EXOSC9_Q06265_158_VDLHLLNHDGNIIDAASIAAIVALCHFR (UniProt Q06265) | 0.286 | 0.191
ERI1_Q8IV48_294_LGMDYDGRPHCGLDDSK (UniProt Q8IV48) | 0.0174 | -0.0387
FAM129A_Q9BZQ8_516_ALASTCKPELQK (UniProt Q9BZQ8) | -0.0467 | -0.00862
FAM120B_Q96EK7_392_QEVPTCTGPESR (UniProt Q96EK7) | -0.46 | -0.0617
ETFA_P13804_68_VAQDLCK (UniProt P13804) | 0.00557 | -0.0991
ERI1_Q8IV48_314_MLQDGCELR (UniProt Q8IV48) | -0.00467 | 0.151
FAM129A_Q9BZQ8_41_QYSVAFCNHVR (UniProt Q9BZQ8) | -0.0973 | -0.0411
EXOSC5_Q9NQT4_209_GLYSDTELQQCLAAAQAASQHVFR (UniProt Q9NQT4) | 0.181 | 0.385
FAF1_Q9UNN5_250+260_HQLWEGWPTSATDDSMCLAESGLSYPCHR (UniProt Q9UNN5) | -0.38 | -0.42
ERO1B_Q86YB8_165_YDDSRDHFCELDDERSPAAQYVDLLLNPER (UniProt Q86YB8) | -0.193 | -0.184
ERH_P84090_33_TYADYESVNECMEGVCK (UniProt P84090) | 0.039 | -0.0155
FAM120A_Q9NZB2_1088+1103_TCNTNPHLNALSTDSACR (UniProt Q9NZB2) | -0.667 | -0.612
EXOSC8_Q96B26_234_LCCLHKPGGSGLTGAK (UniProt Q96B26) | 0.0172 | -0.651
ETFB_P38117_42_HSMNPFCEIAVEEAVR (UniProt P38117) | -0.0939 | 0.0327
EXOC6_Q8TAG9_135_LQLCLPVLEMYSK (UniProt Q8TAG9) | 0.263 | 0.247
EXOSC8_Q96B26_251_LQDCMSR (UniProt Q96B26) | -0.217 | -0.0516
FAM120A_Q9NZB2_174_VAQSIEDHHQEVIGFCR (UniProt Q9NZB2) | -0.0204 | 0.504
FAM126A_Q9BYI3_57_VIQEPQSELLEPVCHQLFEFYR (UniProt Q9BYI3) | 0.156 | 0.076
F11R_Q9Y624_50_LSCAYSGFSSPR (UniProt Q9Y624) | -0.082 | -0.2
EXD2_Q9NVH0_202_NNLLCNGLSLK (UniProt Q9NVH0) | -0.059 | -0.941

Record cards (already shown):
FAM126A_Q9BYI3_57_VIQEPQSELLEPVCHQLFEFYR (UniProt Q9BYI3) is listed as probe-labelled cysteine peptide fold change (10 µM) = 0.156; probe-labelled cysteine peptide fold change (50 µM) = 0.076
EXOC6_Q8TAG9_135_LQLCLPVLEMYSK (UniProt Q8TAG9) is listed as probe-labelled cysteine peptide fold change (10 µM) = 0.263; probe-labelled cysteine peptide fold change (50 µM) = 0.247
